Consider two compounds from paper PMC7155212 (Journal of Enzyme Inhibition and Medicinal Chemistry, 2020).

Protein sequences, listed by entry. Tags and fused reporters are not part of them. Residues count along the entry.
UniProt O42275, 24-633 limits assumed: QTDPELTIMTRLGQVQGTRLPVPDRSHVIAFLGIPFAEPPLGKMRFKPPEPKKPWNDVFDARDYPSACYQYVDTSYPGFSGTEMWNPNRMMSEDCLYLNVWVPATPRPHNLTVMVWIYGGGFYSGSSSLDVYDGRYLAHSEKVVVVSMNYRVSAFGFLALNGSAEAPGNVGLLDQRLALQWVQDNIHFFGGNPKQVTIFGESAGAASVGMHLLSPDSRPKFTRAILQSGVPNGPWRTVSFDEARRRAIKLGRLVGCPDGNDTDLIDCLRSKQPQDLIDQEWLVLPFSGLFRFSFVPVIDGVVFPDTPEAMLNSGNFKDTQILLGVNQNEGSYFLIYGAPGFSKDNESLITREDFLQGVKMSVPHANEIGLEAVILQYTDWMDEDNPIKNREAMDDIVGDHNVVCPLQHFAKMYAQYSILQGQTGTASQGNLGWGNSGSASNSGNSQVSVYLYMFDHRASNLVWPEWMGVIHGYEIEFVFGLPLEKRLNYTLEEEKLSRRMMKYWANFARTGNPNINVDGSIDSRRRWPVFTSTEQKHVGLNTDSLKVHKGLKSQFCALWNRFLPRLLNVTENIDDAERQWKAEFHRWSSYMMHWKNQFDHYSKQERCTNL
UniProt P81908, whole entry: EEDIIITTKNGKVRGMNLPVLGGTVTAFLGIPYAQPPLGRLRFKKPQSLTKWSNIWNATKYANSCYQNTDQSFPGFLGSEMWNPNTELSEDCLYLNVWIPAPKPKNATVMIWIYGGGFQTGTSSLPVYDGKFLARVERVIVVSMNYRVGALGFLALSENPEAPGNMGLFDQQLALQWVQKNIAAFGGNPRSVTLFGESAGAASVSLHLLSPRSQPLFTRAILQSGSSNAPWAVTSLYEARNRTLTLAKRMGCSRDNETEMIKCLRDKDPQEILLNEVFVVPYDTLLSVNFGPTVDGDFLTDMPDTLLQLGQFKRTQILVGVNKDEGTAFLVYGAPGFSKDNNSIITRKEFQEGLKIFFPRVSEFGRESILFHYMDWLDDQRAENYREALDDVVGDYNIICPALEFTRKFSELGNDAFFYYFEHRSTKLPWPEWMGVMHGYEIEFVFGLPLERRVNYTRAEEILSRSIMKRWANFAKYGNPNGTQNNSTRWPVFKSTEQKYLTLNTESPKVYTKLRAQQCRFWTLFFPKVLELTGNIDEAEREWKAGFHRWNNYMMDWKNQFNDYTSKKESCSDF

The target in experiment [1] is AChE from electric eel (Electrophorus electricus, UniProt O42275). To be noted: read-out: IC50 value AChE inhibitory activity, Ellman method, mean ± SD (n = 3).
In experiment [2] the target is BChE from equine serum (Equus caballus, UniProt P81908). To be noted: read-out: IC50 value BuChE inhibitory activity, Ellman method, mean ± SD (n = 3). Background: In Ellman's method for cholinesterases, released thiocholine reacts with DTNB.

Broadly, the IC50 is the concentration needed to halve the response being measured.

For part of its entries the source gives two or more results. They are shown here; other results are not. There may be further records. Values that stand side by side differ, and nothing given here explains why; some may be repeats, others may stem from another dose, organism or construct than stated.

As to `COc1ccc(C2C(=O)Oc3c2ccc(O)c3O)cc1` (centres unmarked) [Compound 5, 6,7-Dihydroxy-3–(4′-methoxyphenyl)-benzofuranone], the IC50 in experiment [1] was < 1 µM and 480 nM.

On to `COc1ccc(C2C(=O)Oc3ccc(O)cc32)cc1` (centres unmarked) [Compound 2, 5-Hydroxyl-3–(4′-methoxyphenyl)-benzofuranone], for which the IC50 in experiment [2] is < 50 µM and 24.9 µM.
